Measured values reported in US9290528B1, “Light-activated compounds” (University of Kentucky Research Foundation, priority 2013, dated 2016).
Some results were stated once for a whole list of compounds, not compound by compound. At least one compound was matched to its structure with a doubt left.

Key:
[1] = tested on: A549 cells; assay: Uptake and subcellular localization by Apoptome microscopy; type: cell-based, human; conditions: after compound addition
Protocol: The emission of 9 and 10 was measured in A549 cells using an Apoptome microscope. The relative rates of uptake of each of the complexes were analyzed as a function of time, and both 9 and 10 were visible inside cells as early as 2 hours after compound addition, consistent with the flow data and the ICP-OES results. Images were taken at 2, 8, 18 and 24 hours, and intracellular levels of both complexes appeared to plateau around 8 hours.
Differences in the intracellular localization of 9 and 10 were evaluated by determining colocalization of luminescence of the compound and fluorescent markers of organelles in A549 cells. Overlap in signals between the compounds, cellular nucleus, mitochondria and lysosome was measured over a 24 hour period.

[2] = tested on: pUC19 plasmid; assay: Gel electrophoresis with supercoiled pUC19 plasmid, DNA damage upon light activation (Example 1); type: biochemical; conditions: light activated

Compound	time at which visible inside cells [1]	concentrations at which significant loss of ethidium bromide signal was observed [2]
O=S(=O)([O-])c1ccc(-c2ccnc3c2ccc2c(-c4ccc(S(=O)(=O)[O-])cc4)ccnc23)cc1.O=S(=O)([O-])c1ccc(-c2ccnc3c2ccc2c(-c4ccc(S(=O)(=O)[O-])cc4)ccnc23)cc1.O=S(=O)([O-])c1ccc(-c2ccnc3c2ccc2c(-c4ccc(S(=O)(=O)[O-])cc4)ccnc23)cc1.[Ru+2] [Compound 10, Ru(bathophenanthorlinedisulfonate)3]	≤ 2 h	–
O.O.[Ru+2].c1cnc2c(c1)ccc1cccnc12.c1cnc2c(c1)ccc1cccnc12 [Ru(phen)2(H2O)2]	–	above 15 μM
Ru(bathophenanthroline)3 [Compound 9]	≤ 2 h	–
